Results taken from publication doi:10.1101/2025.10.06.680572.
Results are given in words; binding and its absence hold for the method and conditions named. In cells and extracts the contact can be indirect. Some results given as binding are weak or reduced against the parent protein; the word gives no strength. Each block holds one binder with its values, some of them ahead of it.

The chains behind the UniProt entries cited, without tags or fusion partners. Where a name states a change or a piece, a line headed by the entry shows the natural chain unless it says otherwise.
UniProt P35221, whole entry: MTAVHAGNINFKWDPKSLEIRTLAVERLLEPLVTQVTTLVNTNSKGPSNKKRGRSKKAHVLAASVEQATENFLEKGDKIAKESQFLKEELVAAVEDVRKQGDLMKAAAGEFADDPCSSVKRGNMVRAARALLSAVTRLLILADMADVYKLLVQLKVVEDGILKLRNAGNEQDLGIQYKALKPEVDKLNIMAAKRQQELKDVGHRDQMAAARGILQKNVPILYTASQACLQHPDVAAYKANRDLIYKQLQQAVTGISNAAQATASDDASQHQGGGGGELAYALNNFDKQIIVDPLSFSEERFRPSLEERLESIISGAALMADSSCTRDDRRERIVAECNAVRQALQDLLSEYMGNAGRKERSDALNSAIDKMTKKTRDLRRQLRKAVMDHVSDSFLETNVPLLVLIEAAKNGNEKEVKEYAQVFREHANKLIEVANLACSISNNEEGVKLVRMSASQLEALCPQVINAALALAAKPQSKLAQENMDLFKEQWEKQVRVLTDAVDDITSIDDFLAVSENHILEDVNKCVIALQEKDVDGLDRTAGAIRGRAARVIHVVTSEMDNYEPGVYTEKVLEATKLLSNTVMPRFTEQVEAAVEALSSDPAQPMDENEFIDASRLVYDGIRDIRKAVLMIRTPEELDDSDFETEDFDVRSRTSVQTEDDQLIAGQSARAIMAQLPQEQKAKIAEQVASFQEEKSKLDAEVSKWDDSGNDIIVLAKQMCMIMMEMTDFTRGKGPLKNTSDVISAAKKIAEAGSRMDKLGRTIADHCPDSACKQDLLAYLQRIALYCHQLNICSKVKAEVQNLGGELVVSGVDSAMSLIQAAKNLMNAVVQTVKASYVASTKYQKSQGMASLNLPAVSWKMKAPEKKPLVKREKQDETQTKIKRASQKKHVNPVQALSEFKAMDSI

Tests used:
[1] = biological target: T1, K-Cadherin (mouse) (mouse (endogenous in adrenal tissue)) (UniProt P97326); assay: proximity ligation
T1 sequence: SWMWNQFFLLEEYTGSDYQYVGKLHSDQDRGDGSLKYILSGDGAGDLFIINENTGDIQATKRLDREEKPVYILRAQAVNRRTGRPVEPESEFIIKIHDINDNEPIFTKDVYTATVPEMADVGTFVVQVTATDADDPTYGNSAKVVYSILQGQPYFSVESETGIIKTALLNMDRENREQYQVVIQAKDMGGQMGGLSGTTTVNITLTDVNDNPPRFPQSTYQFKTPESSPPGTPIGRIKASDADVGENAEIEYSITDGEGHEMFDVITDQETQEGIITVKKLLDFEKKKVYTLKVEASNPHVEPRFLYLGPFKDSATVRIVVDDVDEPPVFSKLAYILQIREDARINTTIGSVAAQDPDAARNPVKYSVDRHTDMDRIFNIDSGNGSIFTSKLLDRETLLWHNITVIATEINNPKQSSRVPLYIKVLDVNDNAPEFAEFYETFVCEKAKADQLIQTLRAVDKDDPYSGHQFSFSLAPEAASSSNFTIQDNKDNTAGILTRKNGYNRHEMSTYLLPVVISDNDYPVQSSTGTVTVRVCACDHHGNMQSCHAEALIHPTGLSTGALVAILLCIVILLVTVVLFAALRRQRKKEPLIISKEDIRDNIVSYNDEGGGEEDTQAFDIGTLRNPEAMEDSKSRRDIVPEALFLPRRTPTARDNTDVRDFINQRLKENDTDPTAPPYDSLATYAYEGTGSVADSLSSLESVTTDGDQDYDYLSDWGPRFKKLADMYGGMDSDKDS

[2] = biological target: α-Catenin (human (endogenous in NCI-H295R)) (UniProt P35221); assay: co-IP
[3] = biological target: T2, K-Cadherin (human (endogenous in NCI-H295R and in human APA tissue)) (UniProt P55285); assay: proximity ligation
T2 sequence: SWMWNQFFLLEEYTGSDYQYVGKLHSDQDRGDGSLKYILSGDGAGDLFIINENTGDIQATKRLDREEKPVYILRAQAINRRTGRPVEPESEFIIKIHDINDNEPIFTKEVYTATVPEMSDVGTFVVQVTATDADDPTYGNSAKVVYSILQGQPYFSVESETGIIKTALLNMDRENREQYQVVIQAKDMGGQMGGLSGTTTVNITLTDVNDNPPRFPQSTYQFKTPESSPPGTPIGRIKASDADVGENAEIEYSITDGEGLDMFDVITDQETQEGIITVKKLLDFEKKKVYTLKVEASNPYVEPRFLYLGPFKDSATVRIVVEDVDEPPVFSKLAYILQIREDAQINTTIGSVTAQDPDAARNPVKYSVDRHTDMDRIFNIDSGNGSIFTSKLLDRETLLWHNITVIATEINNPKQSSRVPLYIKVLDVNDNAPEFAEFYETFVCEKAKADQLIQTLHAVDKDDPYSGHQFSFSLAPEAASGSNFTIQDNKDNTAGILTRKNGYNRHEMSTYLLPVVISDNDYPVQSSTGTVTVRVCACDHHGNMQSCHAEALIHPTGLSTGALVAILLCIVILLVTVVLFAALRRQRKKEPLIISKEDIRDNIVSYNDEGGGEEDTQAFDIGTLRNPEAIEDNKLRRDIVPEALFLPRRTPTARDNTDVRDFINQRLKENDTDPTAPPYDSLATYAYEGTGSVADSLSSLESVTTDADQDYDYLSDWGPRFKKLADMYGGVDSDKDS

binding [1]: binds
B1: p120-catenin (mouse) (protein, UniProt P30999 1-938)
chain: MDDSEVESTASILASVKEQEAQFEKLTRALEEERRHVSAQLERVRVSPQDANSLMANGTLTRRHQNGRFVGDADLERQKFSDLKLNGPQDHNHLLYSTIPRMQEPGQIVETYTEEDPEGAMSVVSVETTDDGTTRRTETTVKKVVKTMTTRTVQPVPMGPDGLPVDASAVSNNYIQTLGRDFRKNGNGGPGPYVGQAGTATLPRNFHYPPDGYGRHYEDGYPGGSDNYGSLSRVTRIEERYRPSMEGYRAPSRQDVYGPQPQVRVGGSSVDLHRFHPEPYGLEDDQRSMGYDDLDYGMMSDYGTARRTGTPSDPRRRLRSYEDMIGEEVPPDQYYWAPLAQHERGSLASLDSLRKGMPPPSNWRQPELPEVIAMLGFRLDAVKSNAAAYLQHLCYRNDKVKTDVRKLKGIPILVGLLDHPKKEVHLGACGALKNISFGRDQDNKIAIKNCDGVPALVRLLRKARDMDLTEVITGTLWNLSSHDSIKMEIVDHALHALTDEVIIPHSGWEREPNEDCKPRHIEWESVLTNTAGCLRNVSSERSEARRKLRECDGLVDALIFIVQAEIGQKDSDSKLVENCVCLLRNLSYQVHREIPQAERYQEALPTVANSTGPHAASCFGAKKGKDEWFSRGKKPTEDPANDTVDFPKRTSPARGYELLFQPEVVRIYISLLKESKTPAILEASAGAIQNLCAGRWTYGRYIRSALRQEKALSAIAELLTSEHERVVKAASGALRNLAVDARNKELIGKHAIPNLVKNLPGGQQNSSWNFSEDTVVSILNTINEVIAENLEAAKKLRETQGIEKLVLINKSGNRSEKEVRAAALVLQTIWGYKELRKPLEKEGWKKSDFQVNLNNASRSQSSHSYDDSTLPLIDRNQKSDKKPDREEIPMSNMGSNTKSLDNNYSTLNERGDHNRTLDRSGDLGDMEPLKGAPLMQKI

binding [2]: binds
B2: K-Cadherin (protein, UniProt P55285 54-790)
chain: T2 sequence

binding [3]: binds
B3: p120-catenin (human) (protein, UniProt O60716 1-968)
chain: MDDSEVESTASILASVKEQEAQFEKLTRALEEERRHVSAQLERVRVSPQDANPLMANGTLTRRHQNGRFVGDADLERQKFSDLKLNGPQDHSHLLYSTIPRMQEPGQIVETYTEEDPEGAMSVVSVETSDDGTTRRTETTVKKVVKTVTTRTVQPVAMGPDGLPVDASSVSNNYIQTLGRDFRKNGNGGPGPYVGQAGTATLPRNFHYPPDGYSRHYEDGYPGGSDNYGSLSRVTRIEERYRPSMEGYRAPSRQDVYGPQPQVRVGGSSVDLHRFHPEPYGLEDDQRSMGYDDLDYGMMSDYGTARRTGTPSDPRRRLRSYEDMIGEEVPSDQYYWAPLAQHERGSLASLDSLRKGGPPPPNWRQPELPEVIAMLGFRLDAVKSNAAAYLQHLCYRNDKVKTDVRKLKGIPVLVGLLDHPKKEVHLGACGALKNISFGRDQDNKIAIKNCDGVPALVRLLRKARDMDLTEVITGTLWNLSSHDSIKMEIVDHALHALTDEVIIPHSGWEREPNEDCKPRHIEWESVLTNTAGCLRNVSSERSEARRKLRECDGLVDALIFIVQAEIGQKDSDSKLVENCVCLLRNLSYQVHREIPQAERYQEAAPNVANNTGPHAASCFGAKKGKDEWFSRGKKPIEDPANDTVDFPKRTSPARGYELLFQPEVVRIYISLLKESKTPAILEASAGAIQNLCAGRWTYGRYIRSALRQEKALSAIADLLTNEHERVVKAASGALRNLAVDARNKELIGKHAIPNLVKNLPGGQQNSSWNFSEDTVISILNTINEVIAENLEAAKKLRETQGIEKLVLINKSGNRSEKEVRAAALVLQTIWGYKELRKPLEKEGWKKSDFQVNLNNASRSQSSHSYDDSTLPLIDRNQKSDKKPDREEIQMSNMGSNTKSLDNNYSTPNERGDHNRTLDRSGDLGDMEPLKGTTPLMQDEGQESLEEELDVLVLDDEGGQVSYPSMQKI
